Assay results from publication PMC12040169 (PLOS Biology, 2025).
This is one part of the list.

These compounds were tested on T1, CTL2-GFP (C. trachomatis L2/434/Bu, GFP-expressing). Conditions: bulk GFP, single well; 28.5 h, 10 µM; inhibitor.
T1 construct: L2/434/Bu, GFP-expressing
Design: species or system HeLa; Intracellular C. trachomatis growth in HeLa cells, bulk GFP fluorescence relative to DMSO

Compared with `CCCCNC(=O)N1CCN(c2ccccc2Cl)CC1` [CBK043777], `CCN(CC)C(=O)C1CCCN(C(=O)NCCc2c[nH]c3ccccc23)C1` (stereo not drawn) [CBK156140] is higher in “% of control remaining” value: 94.3147% for the first, 111.753% for the second.

Compared with `CN(C)S(=O)(=O)c1ccc(C(=O)C2=C(O)C(=O)N(CCN3CCOCC3)C2c2ccccc2)cc1` (stereo not drawn) [CBK264540], `c1ccc(COc2cccc(CNCCN3CCOCC3)c2)cc1` [CBK278226C] is higher in “% of control remaining” value: 89.9804% for the first, 120.095% for the second.

First: CCCCc1nnc(CC(C)C)o1 [CBK008679]
Second: Cc1nnc(-c2cc(CC(C)C)n(-c3cccc(C(=O)N4CC=CCC4)c3)n2)o1 [CBK114630]
The “% of control remaining” value of the first is higher: 107.068% for the first, 101.881% for the second.

Compared with `COc1ccc(C(=O)Nc2cc(C)c3c(=O)oc4ccccc4c3n2)cc1OC` [CBK287442], `COc1ccc(CCN2CCC(CNC(=O)NCc3ccccc3)CC2)cc1OC` [CBK051511T] is lower in “% of control remaining” value: 147.576% for the first, 132.973% for the second.

Compared with `Cc1ccccc1OCC(O)CN1CCN(CCN2C(=O)c3cccc4cccc(c34)C2=O)CC1` (stereo not drawn) [CBK278321C], `COc1ccc(N2CCN(CC(O)COc3ccc4c(C)cc(=O)oc4c3)CC2)cc1` (stereo not drawn) [CBK269847] is lower in “% of control remaining” value: 172.333% for the first, 171.869% for the second.

First: CSCCN(CC(=O)O)Cc1ccccc1 [CBK005712]
Second: CS(=O)(=O)N(CCc1ccccc1)CC(=O)O [CBK281244]
The “% of control remaining” value of the first is lower: 128.959% for the first, 130.872% for the second.

Going from `Cc1ccc(CC2CCCN(C(=O)NCc3cnn(C)c3)C2)cc1` (stereo not drawn) [CBK303990] to `Cc1nn(C)c2nc(NCc3ccc(C(=O)N4CCCC4)cc3)sc12` [CBK307190], the “% of control remaining” value falls from 109.577% to 100.966%.

Compared with `COc1cc(C(=O)N2CCC(n3c(=O)[nH]c4c(C)cccc43)CC2)ccc1C` [CBK155372], `CC(C)(C)C(=O)N1CCC(n2nc(C3CC3)ccc2=O)CC1` [CBK284242] is higher in “% of control remaining” value: 98.0222% for the first, 131.997% for the second.

First: CCN(CC)CCN(C(=O)c1cnn(C)c1C)C1CCS(=O)(=O)C1 (stereo not drawn) [CBK305321]
Second: CCN(CC)CCN1CCN(c2cncc(-c3cccc(/C=C/C(=O)O)c3)n2)CC1 [CBK066097]
The “% of control remaining” value of the first is lower: 120.442% for the first, 151.727% for the second.

Compared with `C(=C\c1cccc(N2CCN(CCN3CCCC3)CC2)n1)/c1ccccc1` [CBK036853], `Cn1c(=O)c2[nH]c(CN3CCN(Cc4ccccc4)CC3)nc2n(C)c1=O` [CBK269519] is lower in “% of control remaining” value: 196.634% for the first, 137.539% for the second.

First: COc1ccc(-c2nc(NC(=O)C3CC(=O)N(C)C3c3cccnc3)cnc2-c2cccc(C)c2)cc1 (stereo not drawn) [CBK036692]
Second: COc1ccc(CNc2cc(/C=C/c3ccccc3)nc3ccnn23)cc1 [CBK037075]
The “% of control remaining” value of the first is higher: 163.12% for the first, 127.372% for the second.

Going from `CC1CC(C(F)F)n2nc(C(=O)O)nc2N1` (stereo not drawn) [CBK267636] to `CC(=O)NCCn1cc2c(n1)[C@H]1CN(C(=O)C(C)C)C[C@H]1CC2` [CBK284571], the “% of control remaining” value falls from 155.884% to 136.56%.

Going from `COc1ccc(C2(C(=O)NCc3c(F)cccc3F)CC2)cc1` [CBK149826] to `COc1ccccc1CNC(=O)c1cccc(C)c1[N+](=O)[O-]` [CBK265703], the “% of control remaining” value falls from 67.3698% to 54.3347%.

Compared with `O=[N+]([O-])c1ccccc1S(=O)(=O)NCc1ccccn1` [CBK261751], `CC(C)(C)c1cc(C(=O)NCc2ccccn2)n(Cc2ccc(Cl)cc2Cl)n1` [CBK107288] is higher in “% of control remaining” value: 111.967% for the first, 113.482% for the second.

Going from `CC(C)(c1ccccc1)c1ccc(OCC(=O)Nc2cccc(C(=O)O)c2)cc1` [CBK266014] to `COc1ccccc1-c1nnc(NC(=O)COc2ccccc2)o1` [CBK287590], the “% of control remaining” value rises from 95.3725% to 137.693%.

Going from `COCCC(=O)NCC1Cc2cc(F)cc(-c3ccc(C(C)=O)s3)c2O1` (stereo not drawn) [CBK306742] to `CCOC(=O)Cc1csc(NC(=O)CSc2nc3cc4c(cc3cc2C)OCO4)n1` [CBK109112], the “% of control remaining” value falls from 121.16% to 99.9594%.

Going from `COc1cc2c(cc1OC)C(C(=O)O)CC(=O)N2` (stereo not drawn) [CBK218955] to `CCOc1cc(/C=C2\SC(=N)NC2=O)ccc1OS(=O)(=O)c1ccc(NC(C)=O)cc1` [CBK265243], the “% of control remaining” value rises from 114.902% to 118.672%.

Compared with `c1ccc(C[n+]2cn3cc(-c4ccccc4)nc3[n-]2)cc1` [CBK261654], `Cc1cc(C(=O)N(Cc2ccccc2)c2ccccc2)no1` [CBK268131] is lower in “% of control remaining” value: 100% for the first, 90.8261% for the second.

Compared with `COc1ccc(CN[C@@H]2CCC[C@H]2Cc2cc(C)no2)cc1` [CBK285401], `Cc1cc(C[C@@H]2COC[C@H]2NCc2ccc(Cl)cc2)on1` [CBK285402] is higher in “% of control remaining” value: 117.095% for the first, 125.26% for the second.

First: CC1CCCN(C(=O)c2ccc(-n3ccnc3)c(-n3cccc3)c2)C1 (stereo not drawn) [CBK285370]
Second: CC(C)Nc1cccnc1N1CCN(C(=O)c2ccncc2)CC1 [CBK016714]
The “% of control remaining” value of the first is lower: 109.304% for the first, 139.622% for the second.

First: CN(C)c1nc(Cl)nc(N(C)C#N)n1 [CBK025922]
Second: Cc1nc(-c2nnc3ccc(Cl)nn23)c(Br)[nH]1 [CBK028706B]
The “% of control remaining” value of the first is lower: 119.405% for the first, 159.092% for the second.

First: CC(Nc1cc(N2CCN(CCO)CC2)ccc1[N+](=O)[O-])c1ccc(Br)cc1 (stereo not drawn) [CBK041273]
Second: CCN1CCN(S(=O)(=O)c2ccc(Br)cc2)CC1 [CBK100197]
The “% of control remaining” value of the first is lower: 49.0637% for the first, 100% for the second.

Going from `COc1cc([N+](=O)[O-])ccc1NC(=S)NCc1ccc(S(N)(=O)=O)cc1` [CBK267067] to `COc1ccc(C2=NN(c3ccc([N+](=O)[O-])cc3)C(=O)/C2=C/NCc2ccc3c(c2)OCO3)cc1` [CBK264598], the “% of control remaining” value falls from 170.141% to 100%.

First: Cc1ccccc1-c1noc(C(C)NC(=O)C2(Cn3ccnc3)CC2)n1 (stereo not drawn) [CBK306684]
Second: Cc1cc(Cc2cnc(NC(=O)c3ccncc3)s2)ccc1Br [CBK298304]
The “% of control remaining” value of the first is higher: 143.637% for the first, 101.732% for the second.

First: COc1ccc(-c2nnc(SCC(=O)O)n2C)cc1 [CBK287232]
Second: Cn1cc(-c2ccc(OCC3CCN(C(=O)OC(C)(C)C)CC3)cn2)cn1 [CBK173498]
The “% of control remaining” value of the first is lower: 146.612% for the first, 172.504% for the second.

Compared with `O=C(O)CCCC(=O)Nc1cc(C(=O)O)ccc1Cl` [CBK267907], `Cc1ccc(NC(=O)CN2C(=O)c3ccccc3C2=O)c(C(=O)O)c1` [CBK262837] is higher in “% of control remaining” value: 90.5035% for the first, 128.392% for the second.

Going from `Cc1cc(C)c(COc2nccnc2OC2CCN(CCCC#N)CC2)c(C)c1` [CBK161575] to `Cc1ccc2cc(CN3CCCC(N)CC3)c(N3CCOCC3)nc2c1` (stereo not drawn) [CBK307693], the “% of control remaining” value rises from 103.247% to 165.025%.

Compared with `Cc1cc2c(cc1NC(=O)[C@@H]1C[C@@H]3C=C[C@H]1C3)n(C)c(=O)n2C` [CBK281689], `CN1CCC(CNC(=O)Cn2ccc3ccc(F)cc32)(N(C)C)CC1` [CBK282569] is higher in “% of control remaining” value: 102.488% for the first, 109.286% for the second.

First: CS(=O)(=O)N1C2CCC(C2)[C@H]1COc1ccc(F)cc1 (stereo partly drawn) [CBK285279]
Second: CC1CN(c2nccn(CCOc3ccc(Br)cc3)c2=O)CCN1 (stereo not drawn) [CBK028596T]
The “% of control remaining” value of the first is higher: 146.291% for the first, 143.581% for the second.

First: O=C(NCc1ccc2c(c1)OCO2)c1ccccc1CCc1ccccc1 [CBK268591]
Second: CN(C)C(=O)c1nccnc1-c1ccc(COc2ccc3c(c2)OCO3)cc1 [CBK050829]
The “% of control remaining” value of the first is lower: 79.4802% for the first, 109.577% for the second.

Compared with `CCC(CN(C(=O)C(N)CCCCN)c1ccc2c(c1)OCO2)c1ccccc1` (stereo not drawn) [CBK001083T], `CC(C)(CN)CN(Cc1cccc(Cl)c1)C(=O)Nc1ccc2c(c1)OCO2` [CBK002482C] is higher in “% of control remaining” value: 110.4% for the first, 119.688% for the second.

Going from `O=C(COc1ccc(I)cc1)N/N=C/c1cccc([N+](=O)[O-])c1` [CBK262211] to `CC(=O)c1ccc(NC(=O)NNS(=O)(=O)c2ccc(F)cc2)cc1` [CBK266944], the “% of control remaining” value rises from 100% to 125.842%.

First: O=c1nc(-c2ccccc2Cl)oc2ccccc12 [CBK152263]
Second: Cc1oc2c(CN(C)C)c(O)ccc2c(=O)c1-c1cnn(-c2ccccc2)c1 [CBK264496]
The “% of control remaining” value of the first is higher: 163.584% for the first, 100% for the second.

Going from `N#CCCN(Cc1ccco1)C(=O)c1ccc(NC2CC2)nc1` [CBK304922] to `N#C/C(=C\c1ccc(C(=O)O)cc1)C(=O)NCC1CCCO1` (stereo not drawn) [CBK263228], the “% of control remaining” value rises from 81.8351% to 113.253%.

Compared with `O=C(O)CN1C(=O)C2CCC(c3ccccc3)CC2C1=O` (stereo not drawn) [CBK286952], `O=C(NC(c1ccccc1)c1cccnc1)C1CCN(C(=O)CN2C(=O)c3ccccc3C2=O)CC1` (stereo not drawn) [CBK060515] is lower in “% of control remaining” value: 115.603% for the first, 89.0269% for the second.

First: Cc1cc(C)cc(Nc2c([N+](=O)[O-])nn(-c3cccc(Cl)c3)[n+]2[O-])c1 [CBK268254]
Second: Cc1cc(C)n(CC(=O)N2CCNCC2c2cccc(Cl)c2)n1 (stereo not drawn) [CBK304116]
The “% of control remaining” value of the first is lower: 75.1129% for the first, 120.132% for the second.

Going from `Cc1nnsc1[S+]([O-])c1ccc(Br)cc1` (stereo not drawn) [CBK012927] to `O=c1/c(=C/c2ccc(N3CCOCC3)cc2)sc2nc3cc(Br)cnc3n12` [CBK262574], the “% of control remaining” value falls from 114.749% to 112.037%.

Going from `Cc1cc(OCc2nc(-c3ccc(NC(=O)c4ccc5c(c4)OCO5)cc3)no2)ccc1Cl` [CBK266673] to `N#Cc1ccc(NCC(=O)Nc2ccn(Cc3ccncc3)n2)cc1` [CBK306241], the “% of control remaining” value rises from 103.772% to 213.647%.

First: CCC(=O)Nc1nc2ccccc2n1CCN1CCOCC1 [CBK261477]
Second: CCC(=O)NC(Nc1cc(Cl)ccc1OC)(C(F)(F)F)C(F)(F)F [CBK261342]
The “% of control remaining” value of the first is higher: 122.409% for the first, 109.268% for the second.
